Experimental data: PubChem BioAssay AID1508588 (Peter MacCallum Cancer Centre, 2020)
In all, the deposit lists about 18,000 reagents; this is an unselected part. 790 of all reagents (4.4%) count as active. 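Calls rest on a combination of fold-change classes in drug and vehicle arms, not all shown here.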 A number with no mark means an inactive call.

Screen: 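Knock-downs boosting vemurafenib effects on melanoma cell growth or lactate release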 (primary screen)
Cells: human WM266.4 melanoma cells (BRAF V600 mutant)
Knock-down reagent: siRNA pool against human genes, 40 nM
Duration: 96 h from transfection to read-out
Challenge: vemurafenib 300 nM (about IC25), added 48 h after transfection, for 48 h; comparison arm got DMSO vehicle only
Measurement: 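Cell gain (DAPI nuclei at end minus before drug, mean of two replicates) and medium lactate by absorbance per cell, both as ratio to non-targeting siRNA, also grouped into fold-change classes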
Scale: cell gain with vemurafenib: higher = more cell gain than with non-targeting siRNA; lactate per cell with vemurafenib: higher = more lactate made per cell
Hit rule: 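a knock-down counts as enhancing when its fold-change classes with vehicle and with vemurafenib, taken together, show a stronger drug effect on cell gain or lactate per cell; exact class pairs not stated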
Meaning of the calls: active = enhances vemurafenib effect; inactive = no enhancement seen

gene	cell gain with vemurafenib	lactate per cell with vemurafenib
DGAT1	0.93	0.62
SLCO6A1	1.37	0.8
ZNF260	0.76	0.86
EDIL3	1.08	0.4
TRIM23	1.01	0.82
TFCP2L1	0.44	1.06
PURB	0.66	0.77
SMAD1	0.66	0.72
SPIRE1	0.55	1.18
DHX37	0.75	0.74
HDIP1	0.68	1.25
GJB4	0.96	0.68
FIGN	0.66	1.27
AKR7A3	0.17	1.77
CFHR4	1.01	0.29
PALS2	0.45	0.64
LCE1C	0.54	1.06
LMO1	0.91	0.62
SSX1	0.51	0.9
ADAMTSL2	0.6	1.26
ZBTB38	0.16 (active)	0.3
EHF	0.98	0.74
RUNDC3B	0.36	0.76
CDH15	0.52	1.16
ENAM	0.9	0.61
TPX2	-0.11	2.64
GMPR	0.71	1.35
ARL15	0.51	0.98
TOPORS	1.04	0.64
FGF23	0.01	1.67
KLB	0.6	1.2
HLA-DMA	1.32	0.75
NTRK3	0.9	1.1
RTP1	0.14	0.65

Records above called active:
gene	cell gain with vemurafenib	lactate per cell with vemurafenib
ZBTB38	0.16 (active)	0.3
